Results are given in words; binding and its absence hold for the method and conditions named. In cells and extracts the contact can be indirect. Binding can be weak; no strength is given.

The test has as its target LRX1^ΔE-FLAG (Arabidopsis thaliana). The test is described as follows: co-IP; proteins transiently co-expressed in N. benthamiana leaves; extract in 200 mM Tris-HCl pH 7.5, 150 mM NaCl, 0.5% Triton X-100; anti-HA or anti-FLAG magnetic beads overnight at 4°C; immunoblot; in Fig 2A synthetic RALF1 peptide (50, 100, 200, 1000 nM) was added to the extracts.

B1: FER^ECD-Citrine (domain or fragment, UniProt Q9SCZ4 28-447)
chain: ADYSPTEKILLNCGGGASNLTDTDNRIWISDVKSKFLSSSSEDSKTSPALTQDPSVPEVPYMTARVFRSPFTYTFPVASGRKFVRLYFYPNSYDGLNATNSLFSVSFGPYTLLKNFSASQTAEALTYAFIIKEFVVNVEGGTLNMTFTPESAPSNAYAFVNGIEVTSMPDMYSSTDGTLTMVGSSGSVTIDNSTALENVYRLNVGGNDISPSADTGLYRSWYDDQPYIFGAGLGIPETADPNMTIKYPTGTPTYVAPVDVYSTARSMGPTAQINLNYNLTWIFSIDSGFTYLVRLHFCEVSSNITKINQRVFTIYLNNQTAEPEADVIAWTSSNGVPFHKDYVVNPPEGNGQQDLWLALHPNPVNKPEYYDSLLNGVEIFKMNTSDGNLAGTNPIPGPQVTADPSKVLRPTTRKSKSNTA
Consider B1, for which the binding entry is reported as “binds”.
